Measurements reported in PubChem BioAssay AID743121 (NCATS, 2013)
Here is a random part of about 26,000 reagents tested. 167 of all reagents (0.63%) count as active. 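Calls are per gene from RSA p-values that are not deposited; an individual active-marked siRNA can sensitise only weakly.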 Unmarked entries are inactive. The numbers tell different reagents against one gene apart. Not all columns of the deposit are shown. No sequences are given here.

Aim: 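Knock-downs that sensitise breast cancer cells to camptothecin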 (primary screen)
Cell system: MDA-MB-231 cells, a human breast cancer line
Reagent: single siRNA against human genes, 20 nM siRNA (0.8 pmol per well)
Duration: 120 h (drug added 48 h after transfection, read 72 h later)
Challenge: camptothecin 20 nM (about EC30) for 72 h; vehicle 0.1% DMSO in parallel plates
Detection: 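CellTiter-Glo ATP signal, scaled to control siRNA as percent viability; sensitisation given as log2 of untreated divided by camptothecin-treated viability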
Direction: log2 vehicle/camptothecin viability: higher = stronger sensitisation to camptothecin; viability with camptothecin: higher = more viable cells
Call rule: 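Active genes have an RSA gene-level p-value below 0.001, computed from the ratios of their separate siRNAs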

gene knocked down | reagent no. | log2 vehicle/camptothecin viability | viability with camptothecin (% of control)
BTRC (GeneID 8945) | 1 | -0.363 | 117
BTRC (GeneID 8945) | 2 | 0.683 | 29.4
BTRC (GeneID 8945) | 3 | -0.132 | 75.5
BTRC (GeneID 8945) | 4 | -0.232 | 67.7
GABBR1 (GeneID 2550) | 1 | 0.321 | 28.1
GABBR1 (GeneID 2550) | 2 | 0.0029 | 89.2
GABBR1 (GeneID 2550) | 3 | 0.662 | 56.5
GABBR1 (GeneID 2550) | 4 | -0.0716 | 47.9
PAQR9 (GeneID 344838) | 1 | -0.311 | 40.8
PAQR9 (GeneID 344838) | 2 | -0.398 | 62.4
PAQR9 (GeneID 344838) | 3 | -0.27 | 56.7
PAQR9 (GeneID 344838) | 4 | -0.376 | 70.9
EXT2 (GeneID 2132) | 1 | -0.332 | 52.6
EXT2 (GeneID 2132) | 2 | -0.25 | 69.4
EXT2 (GeneID 2132) | 3 | -0.253 | 102
EXT2 (GeneID 2132) | 4 | 0.307 | 88.3
PKN2 (GeneID 5586) | 1 | -0.181 | 120
PKN2 (GeneID 5586) | 2 | 0.965 | 22.5
PKN2 (GeneID 5586) | 3 | -0.122 | 103
PKN2 (GeneID 5586) | 4 | -0.449 | 80.2
PCDHA9 (GeneID 9752) | 1 | 0.706 | 27.2
PCDHA9 (GeneID 9752) | 2 | -0.0451 | 56.1
PCDHA9 (GeneID 9752) | 3 | -0.251 | 127
PCDHA9 (GeneID 9752) | 4 | -0.648 | 87.7
MED16 (GeneID 10025) | 1 | 0.696 | 11.6
MED16 (GeneID 10025) | 2 | 0.211 | 62
MED16 (GeneID 10025) | 3 | -0.239 | 61.4
BRD4 (GeneID 23476) | 1 | -0.658 | 53.3
BRD4 (GeneID 23476) | 2 | -0.454 | 82.9
BRD4 (GeneID 23476) | 3 | -0.579 | 73.3
BRD4 (GeneID 23476) | 4 | -0.535 | 88.4
NME5 (GeneID 8382) | 1 | -0.104 | 115
NME5 (GeneID 8382) | 2 | -0.109 | 115
NME5 (GeneID 8382) | 3 | 0.103 | 18.4
NME5 (GeneID 8382) | 4 | -0.253 | 76.2

Laid out differently: 4 of the entries above.
gene knocked down,reagent no.,log2 vehicle/camptothecin viability,viability with camptothecin (% of control)
PCDHA9 (GeneID 9752),4,-0.648,87.7
MED16 (GeneID 10025),1,0.696,11.6
MED16 (GeneID 10025),2,0.211,62
MED16 (GeneID 10025),3,-0.239,61.4

Further entries follow.
gene knocked down | reagent no. | log2 vehicle/camptothecin viability | viability with camptothecin (% of control)
CACNA2D3 (GeneID 55799) | 1 | -0.133 | 73.4
CACNA2D3 (GeneID 55799) | 2 | -0.137 | 117
CACNA2D3 (GeneID 55799) | 3 | -0.0824 | 84.5
CACNA2D3 (GeneID 55799) | 4 | -0.388 | 108
MAPRE2 (GeneID 10982) | 1 | -0.262 | 75.1
MAPRE2 (GeneID 10982) | 2 | 0.366 | 43.2
MAPRE2 (GeneID 10982) | 3 | 1.56 | 5.66
MAPRE2 (GeneID 10982) | 4 | -0.223 | 79
LDAH (GeneID 60526) | 1 | -0.09 | 102
LDAH (GeneID 60526) | 2 | -0.377 | 69.2
LDAH (GeneID 60526) | 3 | -0.246 | 78.7
LDAH (GeneID 60526) | 4 | 0.2 | 72.4
DCUN1D1 (GeneID 54165) | 1 | 0.293 | 84.9
DCUN1D1 (GeneID 54165) | 2 | 0.102 | 102
DCUN1D1 (GeneID 54165) | 3 | 0.021 | 102
DCUN1D1 (GeneID 54165) | 4 | -0.0161 | 85.9
TEX13A (GeneID 56157) | 1 | 0.822 | 26.5
TEX13A (GeneID 56157) | 2 | -0.058 | 82.5
TEX13A (GeneID 56157) | 3 | -0.226 | 74.7
TEX13A (GeneID 56157) | 4 | -0.257 | 70.5
MBD1 (GeneID 4152) | 1 | 0.237 | 47.5
MBD1 (GeneID 4152) | 2 | 0.0969 | 91.9
MBD1 (GeneID 4152) | 3 | 0.0496 | 108
MBD1 (GeneID 4152) | 4 | -0.218 | 79.6
ELAC2 (GeneID 60528) | 1 | -0.173 | 59.5
ELAC2 (GeneID 60528) | 2 | -0.141 | 42.4
ELAC2 (GeneID 60528) | 3 | -0.581 | 87.8
ELAC2 (GeneID 60528) | 4 | -0.614 | 81.4
KLK11 (GeneID 11012) | 1 | -0.437 | 98.4
KLK11 (GeneID 11012) | 2 | -0.369 | 84.4
KLK11 (GeneID 11012) | 3 | 0.241 | 84.7
KLK11 (GeneID 11012) | 4 | -0.0634 | 68
NCSTN (GeneID 23385) | 1 | 0.0916 | 77
NCSTN (GeneID 23385) | 2 | 0.0507 | 96.9
NCSTN (GeneID 23385) | 3 | -0.229 | 26.8
NCSTN (GeneID 23385) | 4 | -0.232 | 79.5
TP73 (GeneID 7161) | 1 | -0.0895 | 91.6
TP73 (GeneID 7161) | 2 | 0.305 | 59.2
TP73 (GeneID 7161) | 3 | -0.0537 | 87.3
TP73 (GeneID 7161) | 4 | -0.172 | 74.9
PI4KB (GeneID 5298) | 1 | 0.436 | 37.1
PI4KB (GeneID 5298) | 2 | -0.178 | 101
PI4KB (GeneID 5298) | 3 | -0.18 | 74
PI4KB (GeneID 5298) | 4 | -0.377 | 55.2
CROT (GeneID 54677) | 1 | -0.159 | 123
CROT (GeneID 54677) | 2 | 0.205 | 85
CROT (GeneID 54677) | 3 | -0.144 | 107
CROT (GeneID 54677) | 4 | -0.135 | 95.8
NGFR (GeneID 4804) | 1 | 0.0583 | 89.6
NGFR (GeneID 4804) | 2 | -0.0462 | 36
NGFR (GeneID 4804) | 3 | -0.0277 | 103
NGFR (GeneID 4804) | 4 | -0.489 | 68.3
